# In patent publication US6620771B2, “Thiadiazole dimer additives and lubricating compositions containing the same” (R. T. Vanderbilt Company, Inc., priority 1999, dated 2003):
# Assay: Timken Load Test (ASTM D-2509) of grease formulations containing the additive
# Conditions: tested at 50 lbs.; approximately 5 wt. % in Lithium-12 hydroxystearate grease
smiles,measurement,value
Sc1nnc(SSc2nnc(S)s2)s1 [DMTD dimer (VI)],Timken OK Load (Pass or Fail) 50 lbs.,Fail
